Some of the results follow.
Legend:
Experiment in all cases: log2 fold change, soluble protein after heating vs DMSO (PISA); higher = thermal stabilisation; K562 lysate, 10 uM; active = over 0.2 and 3.5 SD of the protein, either way, in both replicates (recomputed)
[1] = compound: C#Cc1cccc(Nc2ncnc3cc(OCCOC)c(OCCOC)cc23)c1 [erlotinib]
Summary of the method: (§1)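 A 30 min treatment with 10 μM compound was applied to crude K562 extract at 1 mg/mL protein in PBS pH 7.4 with 1 mM MgCl2. Heating for 3 min spanned 48°C-58°C, after which aliquots were pooled, adjusted to 0.5% NP-40 at 4°C and spun at 21,000xg for 90 min. TMTpro 16plex LC-MS/MS of the supernatant, with channel sums equalised, gave values recorded as log-two fold change in thermal stability against solvent controls, from duplicates.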

The chains behind the UniProt entries cited, without tags or fusion partners. Where a name states a change or a piece, a line headed by the entry shows the natural chain unless it says otherwise.
UniProt Q9C035: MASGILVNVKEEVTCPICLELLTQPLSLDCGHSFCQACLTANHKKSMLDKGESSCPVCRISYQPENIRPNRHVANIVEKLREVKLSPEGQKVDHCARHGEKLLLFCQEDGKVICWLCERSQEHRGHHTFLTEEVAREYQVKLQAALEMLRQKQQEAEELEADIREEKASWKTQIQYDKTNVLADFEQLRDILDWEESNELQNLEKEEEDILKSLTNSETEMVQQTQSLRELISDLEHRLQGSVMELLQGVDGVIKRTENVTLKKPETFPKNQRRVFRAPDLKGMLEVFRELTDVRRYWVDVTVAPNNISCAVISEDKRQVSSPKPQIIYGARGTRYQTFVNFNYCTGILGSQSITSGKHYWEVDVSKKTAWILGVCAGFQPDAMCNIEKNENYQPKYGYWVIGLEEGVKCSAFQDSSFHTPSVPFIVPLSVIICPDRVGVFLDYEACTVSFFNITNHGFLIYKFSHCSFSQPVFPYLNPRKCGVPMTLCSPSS
UniProt O95801: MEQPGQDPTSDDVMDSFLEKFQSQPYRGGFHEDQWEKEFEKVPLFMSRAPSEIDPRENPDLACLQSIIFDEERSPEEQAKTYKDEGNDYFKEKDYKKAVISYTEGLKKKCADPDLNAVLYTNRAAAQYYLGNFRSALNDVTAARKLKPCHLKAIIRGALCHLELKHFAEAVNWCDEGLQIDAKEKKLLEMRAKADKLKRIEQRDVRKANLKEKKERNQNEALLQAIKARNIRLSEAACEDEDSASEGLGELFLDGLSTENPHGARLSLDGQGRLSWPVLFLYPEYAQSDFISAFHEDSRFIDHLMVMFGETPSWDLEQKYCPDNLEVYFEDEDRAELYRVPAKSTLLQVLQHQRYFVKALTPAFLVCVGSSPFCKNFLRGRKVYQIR
UniProt Q13114: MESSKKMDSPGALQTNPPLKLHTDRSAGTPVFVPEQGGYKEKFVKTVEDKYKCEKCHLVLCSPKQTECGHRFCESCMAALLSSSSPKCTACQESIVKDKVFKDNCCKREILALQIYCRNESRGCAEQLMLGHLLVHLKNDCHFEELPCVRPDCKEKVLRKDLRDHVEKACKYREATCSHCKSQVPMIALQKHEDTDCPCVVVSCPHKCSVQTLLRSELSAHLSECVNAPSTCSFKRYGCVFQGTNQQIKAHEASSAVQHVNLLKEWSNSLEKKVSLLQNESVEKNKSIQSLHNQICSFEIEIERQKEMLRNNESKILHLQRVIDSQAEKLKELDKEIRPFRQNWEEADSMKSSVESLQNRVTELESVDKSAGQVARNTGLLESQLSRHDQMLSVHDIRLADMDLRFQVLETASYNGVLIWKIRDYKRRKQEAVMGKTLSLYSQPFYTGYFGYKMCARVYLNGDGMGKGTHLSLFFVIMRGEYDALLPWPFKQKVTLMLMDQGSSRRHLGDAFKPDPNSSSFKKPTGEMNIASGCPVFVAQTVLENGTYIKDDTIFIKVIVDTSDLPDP
UniProt Q8NG06: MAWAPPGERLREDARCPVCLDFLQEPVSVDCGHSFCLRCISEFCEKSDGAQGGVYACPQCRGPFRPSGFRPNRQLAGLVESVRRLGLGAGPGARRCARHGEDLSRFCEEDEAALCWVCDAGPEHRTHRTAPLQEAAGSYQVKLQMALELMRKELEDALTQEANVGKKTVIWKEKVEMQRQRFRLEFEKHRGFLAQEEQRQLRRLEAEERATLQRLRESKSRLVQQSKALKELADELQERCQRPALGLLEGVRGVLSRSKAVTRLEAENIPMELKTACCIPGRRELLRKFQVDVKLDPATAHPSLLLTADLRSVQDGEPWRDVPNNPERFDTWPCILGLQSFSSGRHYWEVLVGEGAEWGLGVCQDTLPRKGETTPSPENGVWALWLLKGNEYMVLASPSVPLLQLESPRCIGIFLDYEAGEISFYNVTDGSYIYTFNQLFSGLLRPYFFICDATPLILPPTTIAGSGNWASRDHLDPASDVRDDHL
UniProt Q629K1: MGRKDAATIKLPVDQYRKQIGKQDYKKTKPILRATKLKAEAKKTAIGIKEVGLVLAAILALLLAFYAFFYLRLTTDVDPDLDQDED
UniProt Q8TDR0: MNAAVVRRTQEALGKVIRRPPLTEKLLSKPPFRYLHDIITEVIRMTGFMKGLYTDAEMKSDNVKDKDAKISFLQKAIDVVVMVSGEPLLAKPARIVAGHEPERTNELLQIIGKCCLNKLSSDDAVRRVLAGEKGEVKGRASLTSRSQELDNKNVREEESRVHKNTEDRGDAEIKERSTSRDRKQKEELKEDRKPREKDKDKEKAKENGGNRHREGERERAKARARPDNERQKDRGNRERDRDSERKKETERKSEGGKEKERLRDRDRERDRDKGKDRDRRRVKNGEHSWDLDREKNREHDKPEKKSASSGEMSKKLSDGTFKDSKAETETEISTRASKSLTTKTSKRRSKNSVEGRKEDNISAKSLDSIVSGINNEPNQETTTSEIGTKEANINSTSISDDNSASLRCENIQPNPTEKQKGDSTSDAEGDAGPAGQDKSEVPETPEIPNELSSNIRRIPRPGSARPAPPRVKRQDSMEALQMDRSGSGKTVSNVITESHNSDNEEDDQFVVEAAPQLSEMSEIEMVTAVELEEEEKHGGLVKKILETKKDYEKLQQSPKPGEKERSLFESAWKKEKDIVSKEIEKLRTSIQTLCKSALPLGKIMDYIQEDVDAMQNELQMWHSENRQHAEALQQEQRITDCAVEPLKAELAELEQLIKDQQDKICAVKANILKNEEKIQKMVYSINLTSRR
UniProt P14373: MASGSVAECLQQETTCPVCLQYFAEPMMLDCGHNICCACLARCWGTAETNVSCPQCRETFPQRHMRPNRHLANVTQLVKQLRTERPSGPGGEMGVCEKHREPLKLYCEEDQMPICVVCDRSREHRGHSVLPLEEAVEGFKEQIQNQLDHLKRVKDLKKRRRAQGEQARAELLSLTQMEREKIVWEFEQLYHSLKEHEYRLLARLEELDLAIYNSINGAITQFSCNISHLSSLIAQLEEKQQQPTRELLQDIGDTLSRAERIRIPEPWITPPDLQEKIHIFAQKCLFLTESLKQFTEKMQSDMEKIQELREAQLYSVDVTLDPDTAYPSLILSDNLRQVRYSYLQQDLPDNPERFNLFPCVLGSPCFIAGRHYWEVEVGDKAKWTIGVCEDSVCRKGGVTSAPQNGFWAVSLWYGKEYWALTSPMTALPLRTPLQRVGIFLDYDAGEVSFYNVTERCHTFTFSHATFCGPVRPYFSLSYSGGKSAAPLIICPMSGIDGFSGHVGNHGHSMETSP
UniProt O14817: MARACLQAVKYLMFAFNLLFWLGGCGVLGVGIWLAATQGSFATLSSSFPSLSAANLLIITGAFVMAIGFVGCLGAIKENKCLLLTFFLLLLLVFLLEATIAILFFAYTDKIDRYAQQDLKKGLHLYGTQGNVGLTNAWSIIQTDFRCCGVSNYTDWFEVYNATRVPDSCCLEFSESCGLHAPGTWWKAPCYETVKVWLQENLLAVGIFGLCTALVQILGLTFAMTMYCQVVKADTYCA
UniProt Q9Y3Q8: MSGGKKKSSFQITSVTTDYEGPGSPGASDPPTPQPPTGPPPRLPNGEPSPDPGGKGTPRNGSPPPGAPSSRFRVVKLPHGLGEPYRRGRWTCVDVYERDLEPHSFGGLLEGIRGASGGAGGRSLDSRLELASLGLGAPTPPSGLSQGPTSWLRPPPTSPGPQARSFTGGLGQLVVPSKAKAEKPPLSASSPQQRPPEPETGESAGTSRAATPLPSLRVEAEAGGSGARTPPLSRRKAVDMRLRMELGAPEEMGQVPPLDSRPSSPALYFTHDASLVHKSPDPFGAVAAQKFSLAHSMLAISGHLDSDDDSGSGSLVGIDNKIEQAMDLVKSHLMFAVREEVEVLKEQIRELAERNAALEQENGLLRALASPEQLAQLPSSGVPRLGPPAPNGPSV
UniProt O95900: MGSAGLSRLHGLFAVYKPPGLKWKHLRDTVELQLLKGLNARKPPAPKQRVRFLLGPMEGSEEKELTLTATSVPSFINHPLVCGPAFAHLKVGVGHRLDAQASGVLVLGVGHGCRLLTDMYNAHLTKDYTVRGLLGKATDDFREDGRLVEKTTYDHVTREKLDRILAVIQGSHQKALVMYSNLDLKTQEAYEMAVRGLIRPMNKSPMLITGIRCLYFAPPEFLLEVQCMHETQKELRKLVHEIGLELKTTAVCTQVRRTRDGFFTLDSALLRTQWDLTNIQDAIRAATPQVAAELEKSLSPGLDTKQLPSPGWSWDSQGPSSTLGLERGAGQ
UniProt Q9UJT2: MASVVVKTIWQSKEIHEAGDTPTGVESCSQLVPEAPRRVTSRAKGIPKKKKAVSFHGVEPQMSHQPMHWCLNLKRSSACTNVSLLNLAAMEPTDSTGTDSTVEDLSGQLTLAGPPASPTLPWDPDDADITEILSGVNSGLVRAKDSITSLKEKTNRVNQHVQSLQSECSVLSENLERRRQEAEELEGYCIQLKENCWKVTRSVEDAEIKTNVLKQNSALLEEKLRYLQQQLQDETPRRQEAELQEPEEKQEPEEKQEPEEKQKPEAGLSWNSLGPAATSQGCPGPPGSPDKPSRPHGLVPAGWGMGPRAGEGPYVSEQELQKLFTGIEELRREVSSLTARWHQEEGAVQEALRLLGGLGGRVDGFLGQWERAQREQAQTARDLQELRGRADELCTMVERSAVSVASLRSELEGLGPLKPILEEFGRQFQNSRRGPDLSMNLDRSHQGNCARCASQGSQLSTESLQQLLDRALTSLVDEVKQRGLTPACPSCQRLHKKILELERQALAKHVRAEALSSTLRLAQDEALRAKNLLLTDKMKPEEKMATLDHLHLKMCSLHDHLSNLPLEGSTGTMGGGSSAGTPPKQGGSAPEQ
UniProt O75157: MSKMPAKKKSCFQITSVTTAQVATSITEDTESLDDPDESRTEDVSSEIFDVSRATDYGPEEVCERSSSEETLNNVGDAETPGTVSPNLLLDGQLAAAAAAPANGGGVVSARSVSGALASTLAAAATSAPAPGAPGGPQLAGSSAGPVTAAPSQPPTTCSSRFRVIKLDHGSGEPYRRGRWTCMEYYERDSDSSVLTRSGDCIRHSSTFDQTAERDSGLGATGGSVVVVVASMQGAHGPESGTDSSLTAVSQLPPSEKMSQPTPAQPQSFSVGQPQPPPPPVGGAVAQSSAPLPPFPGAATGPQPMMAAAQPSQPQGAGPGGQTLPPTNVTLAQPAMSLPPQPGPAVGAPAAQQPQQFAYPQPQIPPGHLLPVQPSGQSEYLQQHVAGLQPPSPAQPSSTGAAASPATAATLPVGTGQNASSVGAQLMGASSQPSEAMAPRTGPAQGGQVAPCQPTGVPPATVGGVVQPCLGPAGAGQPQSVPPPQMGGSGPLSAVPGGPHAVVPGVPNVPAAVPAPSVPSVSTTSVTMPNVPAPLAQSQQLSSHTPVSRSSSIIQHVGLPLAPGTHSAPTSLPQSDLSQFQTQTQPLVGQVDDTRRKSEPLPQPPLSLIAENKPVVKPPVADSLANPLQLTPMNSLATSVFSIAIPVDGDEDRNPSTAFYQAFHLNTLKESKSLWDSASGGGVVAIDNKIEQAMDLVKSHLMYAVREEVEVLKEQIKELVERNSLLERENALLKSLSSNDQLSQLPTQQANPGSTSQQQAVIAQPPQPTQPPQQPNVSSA
UniProt Q5T7W7: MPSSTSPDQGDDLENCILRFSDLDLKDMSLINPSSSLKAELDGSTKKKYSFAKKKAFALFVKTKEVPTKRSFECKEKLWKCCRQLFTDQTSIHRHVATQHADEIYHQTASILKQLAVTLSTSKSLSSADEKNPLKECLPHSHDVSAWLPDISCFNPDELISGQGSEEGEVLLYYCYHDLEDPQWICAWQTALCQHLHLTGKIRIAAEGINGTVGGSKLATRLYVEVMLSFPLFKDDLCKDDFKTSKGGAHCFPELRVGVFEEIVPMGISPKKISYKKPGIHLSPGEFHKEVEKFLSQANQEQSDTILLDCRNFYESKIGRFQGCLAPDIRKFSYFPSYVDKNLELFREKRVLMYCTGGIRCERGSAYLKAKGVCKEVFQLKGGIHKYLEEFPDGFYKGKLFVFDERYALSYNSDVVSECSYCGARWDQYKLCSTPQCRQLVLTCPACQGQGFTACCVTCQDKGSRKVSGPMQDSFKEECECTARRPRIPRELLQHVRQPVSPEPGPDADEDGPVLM
UniProt Q9NUP7: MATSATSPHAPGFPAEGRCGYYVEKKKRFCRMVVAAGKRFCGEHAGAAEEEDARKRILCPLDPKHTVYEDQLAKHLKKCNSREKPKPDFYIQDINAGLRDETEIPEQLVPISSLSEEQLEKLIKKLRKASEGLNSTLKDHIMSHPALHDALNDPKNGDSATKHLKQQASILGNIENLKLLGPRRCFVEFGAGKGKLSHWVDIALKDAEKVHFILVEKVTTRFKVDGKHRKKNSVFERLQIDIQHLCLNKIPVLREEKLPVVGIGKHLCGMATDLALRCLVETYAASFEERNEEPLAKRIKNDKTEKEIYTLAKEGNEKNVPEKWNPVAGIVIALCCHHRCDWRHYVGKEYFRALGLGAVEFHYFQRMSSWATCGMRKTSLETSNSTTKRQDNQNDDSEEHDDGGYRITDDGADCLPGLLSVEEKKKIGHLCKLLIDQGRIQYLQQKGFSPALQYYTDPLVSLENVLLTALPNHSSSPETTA

[2] = compound: C/C(=N\NC(=O)C1=CC(=CC=C1)S(=O)(=O)N2CCOCC2)/C3=C(C=CC(=C3)Cl)O
Summary of the method: as §1

[3] = compound: C1=CC(=CC=C1C2=NC3=C(N2)C=C(C=C3)C(=O)N)OC4=CC=C(C=C4)Cl
Summary of the method: as §1

[4] = compound: C1=CC2=C(C=CC(=C2)/C=C\3/C(=O)NC(=NCC4=CC=CS4)S3)N=C1
Summary of the method: as §1

[5] = compound: C1=CC2=NC=CN=C2C=C1/C=C/3\C(=O)NC(=O)S3
Summary of the method: as §1

[6] = compound: C1=CC=C(C=C1)C2=NC(=C(N2)C3=CC=NC=C3)C4=CC(=C(C=C4)Cl)O
Summary of the method: as §1

[7] = compound: C1=CC=C2C(=C1)C3=NNC4=CC=CC(=C43)C2=O
Summary of the method: as §1

[8] = compound: C1CCN(C1)C(=O)NC2=CC=CC(=C2)NC3=NC=C(C(=N3)NCCC4=CN=CN4)Br
Summary of the method: as §1

[9] = compound: C1CN(CCC1(CC2=CC=C(C=C2)Cl)N)C3=NC=NC4=C3C=CN4
Summary of the method: as §1

[10] = compound: C1COCCN1CCN2C3=CC=CC=C3N=C2NC(=O)C4=CC(=CC=C4)[N+](=O)[O-] [IRAK-1-4 Inhibitor I]
Summary of the method: as §1

[11] = compound: C=CC(=O)N1CCC[C@@H](n2nc(-c3ccc(Oc4ccccc4)cc3)c3c(N)ncnc32)C1 [ibrutinib]
Summary of the method: as §1

[12] = compound: CC(=O)c1cnc2ccc(-c3cc(Cl)c(O)c(Cl)c3)nc2c1N[C@H]1CC[C@H](CN(C)C)CC1
Summary of the method: as §1

[13] = compound: CC(C)(C)Cn1c(N)nc2ccc(-c3[nH]c(C(C)(C)C)nc3-c3ccc(F)cc3)nc21 [ralimetinib]
Summary of the method: as §1

[14] = compound: CC(C)(O)CC(=O)NCCn1ccc2ncnc(Nc3ccc(Oc4cccc(C(F)(F)F)c4)c(Cl)c3)c21
Summary of the method: as §1

[15] = compound: CC(C)C1=C2N=C(C=C(N2N=C1)NCC3=CC=CC=C3)NCCCCCCN
Summary of the method: as §1

[16] = compound: CC1=C(C(CC(=O)N1)C2=CC=C(C=C2)C(F)(F)F)C(=O)NC3=C(C=C4C(=C3)C=NN4)F
Summary of the method: as §1

[17] = compound: CC1=C(C2=C(C=C1)C(=O)C3=CC=CC=C3N2CCCN)C
Summary of the method: as §1

[18] = compound: CC1=C(C=C(C=C1)NC(=O)C2=CC(=CC=C2)C(C)(C)C#N)NC3=CC4=C(C=C3)N=CN(C4=O)C
Summary of the method: as §1

[19] = compound: CC1=C(C=C(C=C1)NC(=O)C2=CC(=CC=C2)N(C)C)NC(=O)C3=CC=C(C=C3)O
Summary of the method: as §1

[20] = compound: CC1=CC=C(C=C1)SC2=C3C=C(SC3=CN=C2)C(=O)N
Summary of the method: as §1

Measured: log2 fold change

TRIM5 (UniProt Q9C035)
inactive: [1] 0.019 | [2] -0.081 | [3] -0.009 | [4] 0.045 | [5] -0.023 | [6] 0.04 | [7] -0.126 | [8] -0.063 | [9] -0.073 | [10] -0.007 | [11] -0.022 | [12] 0.116 | [13] -0.042 | [14] 0.015 | [15] -0.036 | [16] 0.03 | [17] -0.021 | [18] 0.02 | [19] 0.046 | [20] -0.202

TSPYL1 (UniProt Q9H0U9)
inactive: [1] 0.039 | [3] 0 | [5] -0.041 | [6] 0.093 | [10] 0.028 | [11] -0.084 | [12] -0.066 | [13] -0.022 | [14] -0.042 | [15] 0.035 | [16] 0.029 | [17] -0.085 | [18] -0.023 | [19] -0.022 | [20] 0.085

TTC4 (UniProt O95801)
inactive: [1] 0.01 | [2] 0.013 | [3] 0.001 | [4] 0.003 | [5] 0.005 | [6] 0.007 | [7] -0.038 | [8] -0.029 | [9] 0.025 | [10] -0.008 | [11] 0.002 | [12] 0.015 | [13] 0.005 | [14] 0.011 | [15] 0.03 | [16] -0.029 | [17] -0.033 | [18] 0.026 | [19] 0.029 | [20] 0

TRAF3IP2 (UniProt O43734)
inactive: [1] 0.095 | [2] 0.024 | [3] 0.087 | [4] 0.182 | [6] 0.038 | [7] 0.203 | [10] -0.089 | [13] -0.031 | [14] 0.115 | [15] -0.001 | [19] -0.02

TRAF3 (UniProt Q13114)
inactive: [1] -0.004 | [2] 0.028 | [3] 0.171 | [4] 0.056 | [5] -0.1 | [6] -0.023 | [7] 0.032 | [8] -0.118 | [9] 0.029 | [10] 0.082 | [11] 0.175 | [12] 0.045 | [13] 0.026 | [14] 0.026 | [15] 0.07 | [16] 0.087 | [17] -0.109 | [18] 0.022 | [19] -0.043 | [20] -0.018

TRIM58 (UniProt Q8NG06)
inactive: [1] -0.027 | [2] 0.076 | [3] -0.038 | [4] 0.051 | [5] 0.012 | [6] 0.006 | [7] -0.112 | [8] -0.041 | [9] 0.069 | [10] -0.024 | [11] -0.015 | [13] 0.003 | [14] -0.027 | [15] -0.089 | [16] 0.009 | [17] -0.024 | [18] -0.066 | [19] 0.034

TRIQK (UniProt Q629K1)
inactive: [1] -0.038 | [3] -0.044 | [5] -0.002 | [6] -0.043 | [8] 0.394 | [9] -0.001 | [10] 0.015 | [11] -0.047 | [12] -0.002 | [13] -0.016 | [14] -0.023 | [15] 0.097 | [17] -0.082 | [18] 0.07 | [19] 0.059 | [20] 0.022

TRAF3IP1 (UniProt Q8TDR0)
inactive: [1] -0.02 | [2] -0.076 | [3] 0.01 | [4] 0.117 | [5] -0.114 | [6] 0.038 | [7] -0.004 | [8] -0.056 | [9] -0.048 | [10] -0.005 | [11] -0.022 | [12] -0.037 | [13] 0.05 | [14] 0.044 | [15] -0.01 | [17] -0.008 | [18] -0.036 | [19] -0.029 | [20] 0.032

TTC21B (UniProt Q7Z4L5)
inactive: [1] 0.17 | [2] 0.1 | [3] 0.082 | [4] -0.154 | [5] -0.08 | [7] -0.075 | [8] 0.017 | [9] 0.147 | [11] -0.075 | [15] -0.063 | [16] 0.035 | [17] -0.341

TRIM27 (UniProt P14373)
inactive: [1] 0.13 | [2] 0.05 | [3] 0.063 | [4] 0.031 | [5] 0.014 | [6] 0.208 | [7] 0.018 | [10] 0.045 | [11] 0.036 | [13] 0.07 | [14] -0.056 | [15] 0.08 | [16] 0.207 | [18] 0.026 | [19] 0.07

TSPAN4 (UniProt O14817)
inactive: [1] 0.062 | [2] -0.098 | [3] -0.003 | [4] -0.048 | [6] -0.391 | [7] -0.137 | [8] 0.039 | [9] -0.022 | [10] 0.196 | [13] 0.19 | [14] -0.136 | [15] 0.007 | [18] -0.071 | [19] -0.069

TSC22D4 (UniProt Q9Y3Q8)
inactive: [1] 0.008 | [2] 0.002 | [3] 0.021 | [4] 0.012 | [5] -0.014 | [6] -0.043 | [7] -0.02 | [8] -0.026 | [9] 0.022 | [10] -0.005 | [11] 0.045 | [12] -0.026 | [13] 0.026 | [14] 0.02 | [15] 0.005 | [16] -0.012 | [17] -0.012 | [18] -0.007 | [19] -0.001 | [20] -0.013

TRIM3 (UniProt O75382)
inactive: [1] 0.129 | [2] 0.2 | [4] 0.098 | [7] 0.012 | [8] 0 | [9] -0.265 | [12] -0.06 | [15] -0.09 | [20] 0.048
active: [3] -0.909

TRUB2 (UniProt O95900)
inactive: [1] -0.022 | [2] -0.147 | [3] -0.009 | [4] -0.089 | [6] -0.029 | [7] -0.236 | [8] -0.123 | [9] 0.018 | [10] 0.088 | [13] 0.034 | [14] 0.039 | [15] 0.015 | [17] -0.013 | [19] -0.001

TSKS (UniProt Q9UJT2)
inactive: [1] 0.025 | [2] -0.056 | [3] 0.021 | [4] -0.046 | [6] 0.028 | [7] 0.083 | [8] -0.15 | [9] 0.094 | [10] 0.134 | [13] -0.045 | [14] 0.047 | [15] 0 | [17] -0.073 | [18] 0.033 | [19] 0.025

TRIP12 isoform 2 (UniProt Q14669)
inactive: [1] 0.034 | [2] 0.013 | [3] -0.014 | [4] 0.004 | [5] 0.024 | [6] -0.027 | [7] -0.02 | [8] 0.019 | [9] -0.021 | [10] -0.032 | [11] 0 | [12] -0.031 | [13] 0.109 | [14] 0.044 | [15] -0.028 | [16] -0.004 | [17] 0.066 | [18] 0.058 | [19] -0.012 | [20] 0.031

TSC22D2 (UniProt O75157)
inactive: [1] -0.028 | [2] 0.016 | [3] 0.043 | [4] -0.018 | [5] -0.01 | [6] -0.011 | [7] 0.017 | [8] -0.027 | [9] 0.031 | [10] 0.005 | [11] 0.106 | [12] 0.02 | [13] 0.025 | [14] 0.021 | [15] 0.027 | [16] -0.014 | [17] -0.061 | [18] 0.019 | [19] 0.018 | [20] -0.05

TSTD2 (UniProt Q5T7W7)
inactive: [1] 0.045 | [2] -0.11 | [3] -0.013 | [4] 0.177 | [5] 0.005 | [6] 0.15 | [7] 0.031 | [10] -0.031 | [11] -0.052 | [12] -0.027 | [13] 0.039 | [14] -0.06 | [15] 0.082 | [16] 0.019 | [17] 0.059 | [19] 0.075 | [20] 0.123

TRMT13 (UniProt Q9NUP7)
inactive: [1] 0.023 | [2] 0.032 | [3] 0.087 | [4] -0.045 | [5] -0.007 | [6] 0.045 | [7] -0.04 | [8] -0.018 | [9] -0.044 | [10] 0.014 | [11] 0.063 | [12] 0.058 | [13] 0.007 | [14] -0.04 | [15] -0.043 | [16] -0.038 | [17] -0.038 | [18] 0.033 | [19] 0.017 | [20] 0.005

— the supplement of paper PMC10849652
